Patent US7223547B2, “Polypeptides having a functional domain of interest and methods of identifying and using same” (Cytogen Corporation, priority 1995, dated 2007)
No constants are given. Whether binding was seen depends on the method and setting. Some binding calls cover weakened binding; strength is not graded here.

The chains behind the UniProt entries cited, without tags or fusion partners.
UniProt P06241: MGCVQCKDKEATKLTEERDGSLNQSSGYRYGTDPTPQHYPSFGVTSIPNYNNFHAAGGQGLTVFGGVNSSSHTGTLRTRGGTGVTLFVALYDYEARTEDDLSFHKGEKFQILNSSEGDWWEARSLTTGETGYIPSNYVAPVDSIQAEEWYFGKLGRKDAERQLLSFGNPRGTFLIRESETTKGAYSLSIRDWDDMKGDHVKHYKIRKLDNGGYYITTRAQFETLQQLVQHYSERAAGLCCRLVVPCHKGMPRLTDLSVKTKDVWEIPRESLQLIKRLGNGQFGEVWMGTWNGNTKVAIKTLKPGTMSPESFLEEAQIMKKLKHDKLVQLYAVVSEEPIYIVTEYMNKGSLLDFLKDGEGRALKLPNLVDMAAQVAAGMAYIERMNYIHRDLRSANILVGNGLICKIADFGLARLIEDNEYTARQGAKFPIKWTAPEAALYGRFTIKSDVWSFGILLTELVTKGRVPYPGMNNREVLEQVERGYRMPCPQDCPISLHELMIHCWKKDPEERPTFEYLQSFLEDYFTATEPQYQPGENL
UniProt P07948: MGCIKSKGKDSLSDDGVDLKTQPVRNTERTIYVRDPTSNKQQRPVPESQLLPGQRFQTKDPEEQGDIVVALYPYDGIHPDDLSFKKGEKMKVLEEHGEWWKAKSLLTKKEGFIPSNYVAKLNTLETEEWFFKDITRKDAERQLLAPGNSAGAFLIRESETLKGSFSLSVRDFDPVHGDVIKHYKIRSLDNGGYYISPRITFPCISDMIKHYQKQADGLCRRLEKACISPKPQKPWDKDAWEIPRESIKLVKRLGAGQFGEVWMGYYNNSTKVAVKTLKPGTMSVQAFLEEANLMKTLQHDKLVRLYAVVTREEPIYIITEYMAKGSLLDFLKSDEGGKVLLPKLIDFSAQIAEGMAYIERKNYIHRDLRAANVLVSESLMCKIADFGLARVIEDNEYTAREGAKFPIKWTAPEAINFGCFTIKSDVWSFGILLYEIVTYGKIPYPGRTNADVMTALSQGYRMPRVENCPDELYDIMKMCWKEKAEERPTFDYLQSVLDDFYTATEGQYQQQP

Legend:
SH3P15 (Fyn) (human) = SH3P15 (Fyn) (human) (UniProt P06241); experiment: plaque-lift screen of human prostate cancer and bone marrow cDNA expression libraries with biotinylated peptide complexed to SA-AP (T12SRC.4 also present in the initial screens)
SH3P16 (Lyn) (human) = SH3P16 (Lyn) (human) (UniProt P07948); experiment: as above

- binding (SH3P15 (Fyn) (human)): binds
- binding (SH3P16 (Lyn) (human)): binds
Binder: GILAPPVPPRNTR (N-terminal biotin; C-terminal amide (NH2)) [T12SRC.1 (biotin-…-NH2)]
